Results taken from publication PMC6123492, “Structural and biochemical insights into small RNA 3′ end trimming by Arabidopsis SDN1”.
These are yes or no findings as the source states them, for the method shown. Some binding calls cover weakened binding; strength is not graded here. Sequences can lack the tags named with a protein.

Experiments:
[1] = target: T1, MBP-tagged Arabidopsis AGO10 PAZ domain (Arabidopsis) (UniProt Q9XGW1); test: pull-down; as a1 but with RNase A treatment, to test whether the SDN1-AGO PAZ interaction depends on RNA; both purified
T1 sequence: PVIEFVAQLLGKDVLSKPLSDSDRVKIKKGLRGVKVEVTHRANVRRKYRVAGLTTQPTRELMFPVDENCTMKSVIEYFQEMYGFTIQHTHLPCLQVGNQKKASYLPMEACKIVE

[2] = target: T2, MBP-tagged Arabidopsis AGO1 PAZ domain (Arabidopsis) (UniProt O04379); test: as above
T2 sequence: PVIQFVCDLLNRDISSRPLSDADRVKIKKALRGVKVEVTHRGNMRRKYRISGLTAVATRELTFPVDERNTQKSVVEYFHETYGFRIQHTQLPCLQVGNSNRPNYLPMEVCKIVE

[3] = target: T1, MBP-tagged Arabidopsis AGO10 PAZ domain (Arabidopsis); test: pull-down; about 40 μg purified MBP-tagged AGO fragment or MBP alone mixed with 1 μg purified untagged SDN1, captured on dextrin beads, 4 °C overnight; 20 mM Tris-HCl pH 8.0, 100 mM NaCl, 0.1 mM MgCl2, 1 mM DTT, 5% glycerol, 0.2 mg/ml BSA; ten washes with 0.5% NP-40; SDN1 detected by western blot with anti-SDN1; both purified
[4] = target: T2, MBP-tagged Arabidopsis AGO1 PAZ domain (Arabidopsis); test: as above

Measured: binding

B1: Arabidopsis SDN1 (Small RNA Degrading Nuclease 1), recombinant, non-tagged (enzyme, UniProt A3KPE8 2-409)
chain: ELKLATAEKQVLDELVKLLQSRDLRGENGNWKEFLHVYDKNADSPSDPSRRSHEDLVQFLTTFKKKEDLQLLKCHANHLLIENLKQESQDEDTPEQMLVRLTVEHPSYSLDYSFKPYSEDWFVSDVGMKMKKVMESTNMVAVDCEMVLCEDGTEGLVRVGVVDRDLKVILDEFVKPNKPVVDYRTDITGITAEDIENASLSVVDIQETLQPFLSTGTILVGHSLNRDLEVLKIDHPKVIDTALVFKYPNTRKLRRPSLNNLCKSILGYEVRKTGVPHDCVHDASAAMKLALAVVEKRVDTTIKPSKEMLEVEKAKLFLHKIPNNVPSEELEQVLSGKFTLDVKQAKTQGRYYCAFALFHSSEDADQAFEHIDGIEMTDSLGLPQKVVIIKLSSGSRASIYVRKMVQDE
binds: all assays above
